The shares of active, inactive and inconclusive entries below differ from those in the screen. The source made the active and inactive calls. How the calls were made is not given here.
Experiment: quorum luxo light induction, V. cholerae bh1651 luxod47e, confirmatory dose response (AID 652289)
Settings: luciferase light induction, 6 h; at 80 µM (top of the series) unless noted
With O=C(Nc1nnc(-c2ccc3c(c2)OCCO3)o1)C1CCCC1 the light induction was inconclusive: 15.9%.
With Cc1ccc2cc3c(NC(=O)c4ccc(C)o4)nn(C)c3nc2c1 the light induction was inactive: -0.015% [at 100 µM].
For O=C(Nc1nnc(-c2cccc(Cl)c2)o1)C1CCCCC1, the light induction was inactive: 0.065%.
